# The other results are listed elsewhere or left out.
# Key:
# Assay in all cases: glycan array binding signal (z-score within array); higher = stronger binding
# Settings in all cases: glycan notation: IUPAC condensed, linker removed
# [1] = target: Neu5Ac(a2-8)Neu5Ac
# How it was run: (§1)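 The binding signal is a Z-score computed within each array and averaged over linkers. Arrays of the same protein sequence at different concentrations or buffers were also averaged together. Data originate from 3228 arrays in the Consortium for Functional Glycomics database, kept only where the protein sequence was available.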
# [2] = target: Neu5Ac(a2-8)Neu5Ac(a2-3)Gal(b1-3)GalNAc(b1-4)[Neu5Ac(a2-3)]Gal(b1-4)Glc
# How it was run: as §1
# [3] = target: Neu5Ac(a2-8)Neu5Ac(a2-3)Gal(b1-3)GalNAc(b1-4)[Neu5Ac(a2-8)Neu5Ac(a2-3)]Gal(b1-4)Glc
# How it was run: as §1
# [4] = target: Neu5Ac(a2-8)Neu5Ac(a2-3)Gal(b1-4)Glc
# How it was run: as §1
# [5] = target: Neu5Ac(a2-8)Neu5Ac(a2-3)Gal(b1-4)GlcNAc
# How it was run: as §1
# [6] = target: Neu5Ac(a2-8)Neu5Ac(a2-3)[Gal(b1-3)GalNAc(b1-4)]Gal(b1-4)Glc
# How it was run: as §1
# [7] = target: Neu5Ac(a2-8)Neu5Ac(a2-3)[GalNAc(b1-4)]Gal(b1-4)Glc
# How it was run: as §1
# [8] = target: Neu5Ac(a2-8)Neu5Ac(a2-8)Neu5Ac
# How it was run: as §1
# [9] = target: Neu5Ac(a2-8)Neu5Ac(a2-8)Neu5Ac(a2-3)Gal(b1-4)Glc
# How it was run: as §1
# [10] = target: Neu5Ac(a2-8)Neu5Ac(a2-8)Neu5Ac(a2-3)[Gal(b1-3)GalNAc(b1-4)]Gal(b1-4)Glc
# How it was run: as §1
# [11] = target: Neu5Ac(a2-8)Neu5Ac(a2-8)Neu5Ac(a2-3)[GalNAc(b1-4)]Gal(b1-4)Glc
# How it was run: as §1
# [12] = target: Neu5Ac(a2-8)Neu5Ac(a2-8)Neu5Ac(a2-8)Neu5Ac(a2-3)[GalNAc(b1-4)]Gal(b1-4)Glc
# How it was run: as §1
# [13] = target: Neu5Ac(a2-8)Neu5Gc(a2-3)Gal(b1-4)GlcNAc
# How it was run: as §1
# [14] = target: Neu5Ac(b2-6)Gal(b1-4)GlcNAc
# How it was run: as §1
# [15] = target: Neu5Ac(b2-6)GalNAc
# How it was run: as §1
# [16] = target: Neu5Ac9Ac(a2-3)Gal(b1-3)GlcNAc
# How it was run: as §1
# [17] = target: Neu5Ac9Ac(a2-3)Gal(b1-4)GlcNAc
# How it was run: as §1
# [18] = target: Neu5Ac9Ac(a2-6)Gal(b1-4)GlcNAc
# How it was run: as §1
# [19] = target: Neu5Gc(a2-3)Gal(b1-3)GlcNAc
# How it was run: as §1
# [20] = target: Neu5Gc(a2-3)Gal(b1-3)[Fuc(a1-4)]GlcNAc
# How it was run: as §1
# [21] = target: Neu5Gc(a2-3)Gal(b1-4)Glc
# How it was run: as §1
# [22] = target: Neu5Gc(a2-3)Gal(b1-4)GlcNAc
# How it was run: as §1
# [23] = target: Neu5Gc(a2-3)Gal(b1-4)GlcNAc(b1-3)Gal(b1-4)GlcNAc(b1-2)Man(a1-3)[Neu5Gc(a2-3)Gal(b1-4)GlcNAc(b1-3)Gal(b1-4)GlcNAc(b1-2)Man(a1-6)]Man(b1-4)GlcNAc(b1-4)GlcNAc
# How it was run: as §1
# [24] = target: Neu5Gc(a2-3)Gal(b1-4)[Fuc(a1-3)]GlcNAc
# How it was run: as §1
# [25] = target: Neu5Gc(a2-6)Gal(b1-4)GlcNAc
# How it was run: as §1
# [26] = target: Neu5Gc(a2-6)GalNAc
# How it was run: as §1
# [27] = target: Neu5Gc(a2-8)Neu5Ac(a2-3)Gal(b1-4)GlcNAc
# How it was run: as §1
# [28] = target: Neu5Gc(a2-8)Neu5Gc(a2-3)Gal(b1-4)GlcNAc
# How it was run: as §1
# [29] = target: Neu5Gc(a2-8)Neu5Gc(a2-3)Gal(b1-4)GlcNAc(b1-3)Gal(b1-4)GlcNAc
# How it was run: as §1
# [30] = target: Neu5Gc(a2-8)Neu5Gc(a2-6)Gal(b1-4)GlcNAc
# How it was run: as §1
# [31] = target: Neu5Gc(b2-6)Gal(b1-4)GlcNAc
# How it was run: as §1
binder,measurement,setting,value
SJCP1531 (Schistosoma japonicum) (protein) MFKVRIINLVNISTVLLLINLLQTKSQVNVEQLVTVLEVNIKAQLKNKTTEVLVEWNPLYQDNSMPEYRKLLDETCKLFLPFVNEKVPPSTYGGECTNANFSEAPQDGSYSRVNAELRLIYKYSDNPQIQTDRLQDDLNDREEFITSESSFVAYNPKFTVKIEKLFIPISESQTTPPPTTAKNDASKKDDDDNGGEDSKAPIDTFAMTASGNKGKKDDDDNGGEDSKAPIDTFAMTASGSKDERSTWTIIGIITLVVLIFVVIGGGITVFVKRC,glycan array binding signal (z-score),[1],0.11
same,glycan array binding signal (z-score),[2],1.9
same,glycan array binding signal (z-score),[3],0.787
same,glycan array binding signal (z-score),[4],-0.867
same,glycan array binding signal (z-score),[5],-1.67
same,glycan array binding signal (z-score),[6],-0.506
same,glycan array binding signal (z-score),[7],-0.211
same,glycan array binding signal (z-score),[8],0.075
same,glycan array binding signal (z-score),[9],0.59
same,glycan array binding signal (z-score),[10],-1.06
same,glycan array binding signal (z-score),[11],-0.714
same,glycan array binding signal (z-score),[12],1.45
same,glycan array binding signal (z-score),[13],-1.65
same,glycan array binding signal (z-score),[14],0.429
same,glycan array binding signal (z-score),[15],-1.49
same,glycan array binding signal (z-score),[16],-0.093
same,glycan array binding signal (z-score),[17],-0.874
same,glycan array binding signal (z-score),[18],0.138
same,glycan array binding signal (z-score),[19],0.155
same,glycan array binding signal (z-score),[20],0.412
same,glycan array binding signal (z-score),[21],-1.12
same,glycan array binding signal (z-score),[22],-1.16
same,glycan array binding signal (z-score),[23],0.86
same,glycan array binding signal (z-score),[24],0.581
same,glycan array binding signal (z-score),[25],-0.348
same,glycan array binding signal (z-score),[26],0.537
same,glycan array binding signal (z-score),[27],-0.237
same,glycan array binding signal (z-score),[28],-1.35
same,glycan array binding signal (z-score),[29],-1.51
same,glycan array binding signal (z-score),[30],-1.29
same,glycan array binding signal (z-score),[31],-0.218

# For reference, some entries already given:
binder,measurement,setting,value
SJCP1531 (Schistosoma japonicum) (protein) MFKVRIINLVNISTVLLLINLLQTKSQVNVEQLVTVLEVNIKAQLKNKTTEVLVEWNPLYQDNSMPEYRKLLDETCKLFLPFVNEKVPPSTYGGECTNANFSEAPQDGSYSRVNAELRLIYKYSDNPQIQTDRLQDDLNDREEFITSESSFVAYNPKFTVKIEKLFIPISESQTTPPPTTAKNDASKKDDDDNGGEDSKAPIDTFAMTASGNKGKKDDDDNGGEDSKAPIDTFAMTASGSKDERSTWTIIGIITLVVLIFVVIGGGITVFVKRC,glycan array binding signal (z-score),[7],-0.211
same,glycan array binding signal (z-score),[8],0.075

# Reference: the supplement of paper PMC8728848
